Reference: publication PMC8080709
These are yes or no findings as the source states them, for the method shown. Binding seen in cells or lysates may run through a third protein. Some results given as binding are weak or reduced against the parent protein; the word gives no strength.

The chains behind the UniProt entries cited, without tags or fusion partners.
UniProt Q3URK3: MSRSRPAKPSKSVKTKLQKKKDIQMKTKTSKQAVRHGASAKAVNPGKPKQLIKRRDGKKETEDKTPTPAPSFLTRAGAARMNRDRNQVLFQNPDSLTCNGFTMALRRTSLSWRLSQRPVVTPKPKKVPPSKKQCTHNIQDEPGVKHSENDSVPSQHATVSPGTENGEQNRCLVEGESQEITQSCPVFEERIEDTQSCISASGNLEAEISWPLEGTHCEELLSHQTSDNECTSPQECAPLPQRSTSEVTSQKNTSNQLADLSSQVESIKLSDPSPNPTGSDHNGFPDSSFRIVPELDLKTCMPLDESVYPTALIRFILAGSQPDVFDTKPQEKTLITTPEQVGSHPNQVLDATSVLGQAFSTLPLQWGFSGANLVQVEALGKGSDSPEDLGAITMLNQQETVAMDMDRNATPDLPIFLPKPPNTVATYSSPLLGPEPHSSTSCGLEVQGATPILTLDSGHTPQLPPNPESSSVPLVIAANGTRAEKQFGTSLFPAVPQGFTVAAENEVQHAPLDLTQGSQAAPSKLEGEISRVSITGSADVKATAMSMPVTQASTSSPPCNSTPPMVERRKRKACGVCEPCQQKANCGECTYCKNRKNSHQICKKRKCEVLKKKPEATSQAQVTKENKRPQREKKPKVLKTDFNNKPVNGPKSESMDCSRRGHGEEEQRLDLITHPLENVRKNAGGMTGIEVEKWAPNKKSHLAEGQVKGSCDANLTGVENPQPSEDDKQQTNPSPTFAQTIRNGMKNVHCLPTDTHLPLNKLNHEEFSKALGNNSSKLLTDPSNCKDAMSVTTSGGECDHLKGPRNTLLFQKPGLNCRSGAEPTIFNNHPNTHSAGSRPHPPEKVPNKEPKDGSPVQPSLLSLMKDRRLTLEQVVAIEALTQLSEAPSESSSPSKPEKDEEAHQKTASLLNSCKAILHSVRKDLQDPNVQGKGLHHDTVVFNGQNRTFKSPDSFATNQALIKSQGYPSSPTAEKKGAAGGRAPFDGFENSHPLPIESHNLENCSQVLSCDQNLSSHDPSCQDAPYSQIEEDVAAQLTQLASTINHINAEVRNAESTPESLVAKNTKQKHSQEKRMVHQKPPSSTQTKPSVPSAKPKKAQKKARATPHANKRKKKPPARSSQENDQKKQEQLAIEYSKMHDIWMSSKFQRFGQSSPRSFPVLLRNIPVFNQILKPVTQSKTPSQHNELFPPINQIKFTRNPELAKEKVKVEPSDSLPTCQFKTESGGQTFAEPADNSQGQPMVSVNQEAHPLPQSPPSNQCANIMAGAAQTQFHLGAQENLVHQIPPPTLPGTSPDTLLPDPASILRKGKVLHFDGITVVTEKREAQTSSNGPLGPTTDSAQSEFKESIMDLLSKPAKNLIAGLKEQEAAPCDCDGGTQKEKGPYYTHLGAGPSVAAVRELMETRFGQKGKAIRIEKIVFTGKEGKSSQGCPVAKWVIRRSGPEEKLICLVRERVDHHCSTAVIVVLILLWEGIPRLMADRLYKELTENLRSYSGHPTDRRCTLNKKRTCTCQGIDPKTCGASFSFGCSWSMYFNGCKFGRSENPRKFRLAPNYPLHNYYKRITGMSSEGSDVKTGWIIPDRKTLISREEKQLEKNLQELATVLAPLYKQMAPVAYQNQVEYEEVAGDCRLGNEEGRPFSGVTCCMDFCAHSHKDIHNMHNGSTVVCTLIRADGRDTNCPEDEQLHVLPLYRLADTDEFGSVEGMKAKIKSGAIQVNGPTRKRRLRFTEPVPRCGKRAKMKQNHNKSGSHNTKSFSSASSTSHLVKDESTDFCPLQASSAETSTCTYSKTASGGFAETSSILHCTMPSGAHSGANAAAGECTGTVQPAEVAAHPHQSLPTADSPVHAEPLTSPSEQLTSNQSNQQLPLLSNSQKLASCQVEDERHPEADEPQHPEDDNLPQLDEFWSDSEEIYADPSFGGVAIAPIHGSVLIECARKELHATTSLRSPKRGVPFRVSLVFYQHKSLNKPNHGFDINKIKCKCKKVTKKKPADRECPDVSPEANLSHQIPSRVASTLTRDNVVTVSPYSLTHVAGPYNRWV
UniProt P70388: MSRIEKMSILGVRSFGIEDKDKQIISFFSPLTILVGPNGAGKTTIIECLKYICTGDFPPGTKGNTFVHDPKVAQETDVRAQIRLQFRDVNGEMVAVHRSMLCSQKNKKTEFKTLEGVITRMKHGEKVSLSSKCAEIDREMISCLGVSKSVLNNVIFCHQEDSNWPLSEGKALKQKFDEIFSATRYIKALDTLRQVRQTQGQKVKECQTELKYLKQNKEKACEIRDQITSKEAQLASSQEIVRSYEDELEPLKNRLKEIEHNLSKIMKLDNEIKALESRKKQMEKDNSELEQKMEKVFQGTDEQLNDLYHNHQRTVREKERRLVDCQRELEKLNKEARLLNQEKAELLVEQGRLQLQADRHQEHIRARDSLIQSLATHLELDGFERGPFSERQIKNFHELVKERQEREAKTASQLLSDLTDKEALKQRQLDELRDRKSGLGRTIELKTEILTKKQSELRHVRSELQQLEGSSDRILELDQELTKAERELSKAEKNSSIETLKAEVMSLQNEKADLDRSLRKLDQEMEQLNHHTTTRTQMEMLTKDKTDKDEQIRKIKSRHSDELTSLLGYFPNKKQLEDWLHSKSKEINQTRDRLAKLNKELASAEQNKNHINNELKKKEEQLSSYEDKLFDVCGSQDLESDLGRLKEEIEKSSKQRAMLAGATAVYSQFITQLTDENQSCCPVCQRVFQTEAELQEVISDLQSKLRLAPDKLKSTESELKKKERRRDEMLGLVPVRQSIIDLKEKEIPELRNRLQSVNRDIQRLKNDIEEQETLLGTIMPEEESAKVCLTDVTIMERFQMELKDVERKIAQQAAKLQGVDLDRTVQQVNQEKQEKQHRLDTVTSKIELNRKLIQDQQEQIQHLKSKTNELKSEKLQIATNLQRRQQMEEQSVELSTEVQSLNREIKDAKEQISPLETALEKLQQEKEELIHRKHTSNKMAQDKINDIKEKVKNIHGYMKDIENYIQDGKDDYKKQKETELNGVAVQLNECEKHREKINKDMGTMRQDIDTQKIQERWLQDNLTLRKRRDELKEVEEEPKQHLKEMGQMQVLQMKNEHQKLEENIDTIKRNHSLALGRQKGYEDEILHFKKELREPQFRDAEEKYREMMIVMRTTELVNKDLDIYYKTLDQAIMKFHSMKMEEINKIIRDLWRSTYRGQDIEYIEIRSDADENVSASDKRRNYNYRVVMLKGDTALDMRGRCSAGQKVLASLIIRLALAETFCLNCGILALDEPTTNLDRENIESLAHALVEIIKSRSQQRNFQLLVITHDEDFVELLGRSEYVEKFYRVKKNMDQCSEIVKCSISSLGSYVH

Experiments:
[1] = biological target: tet methylcytosine dioxygenase 1 (Tet1) (mouse (endogenous; the paper cultures only mouse cells, the cell type of the co-IP is not named)) (UniProt Q3URK3); assay: co-IP; cells lysed in RIPA buffer with proteinase inhibitor cocktail, sonicated, precleared with protein G magnetic beads 1 h; anti-Tet1 or anti-Rad50 antibody overnight at 4 °C; beads washed with RIPA buffer, western blot; also done after Mre11 and Nbs1 knockdown (interaction significantly decreased)
[2] = biological target: Rad50 (mouse (endogenous; the paper cultures only mouse cells, the cell type of the co-IP is not named)) (UniProt P70388); assay: as above

| binding [1] | binding [2] | Substance |
| --- | --- | --- |
| binds | – | Rad50 (from UniProt P70388 1-1312) |
| – | binds | tet methylcytosine dioxygenase 1 (Tet1) (from UniProt Q3URK3 1-2039) (enzyme) |
